# According to the supplement of paper PMC8728848:
# The list shows a part of the results.
# B1: S100A12 (Homo sapiens), P80511 (protein)
# chain: MTKLEEHLEGIVNIFHQYSVRKGHFDTLSKGELKQLLTKELANTIKNIKDKAVIDEIFQGLDANQDEQVDFQEFISLVAIALKAAHYHTHKE
# Columns and labels:
# Test in all cases: glycan array binding signal (z-score within array); higher = stronger binding
# Conditions in all cases: glycan notation: IUPAC condensed, linker removed
# GlcA(b1-6)Gal = target: GlcA(b1-6)Gal
# How it was run: (§1)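 Glycan array binding is given as a within-array Z-score, which can be read as non-binding when negative. The arrays, 3228 of them, came from the Consortium for Functional Glycomics database and were retained only where the protein sequence was available. Z-scores were averaged across arrays of the same protein sequence at different concentrations or buffers and across linkers.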
# [1] = target: GlcNAc(a1-3)Gal(b1-4)GlcNAc
# How it was run: as §1
# [2] = target: GlcNAc(a1-6)Gal(b1-4)GlcNAc
# How it was run: as §1
# [3] = target: GlcNAc(b1-2)Gal(b1-3)GalNAc
# How it was run: as §1
# [4] = target: GlcNAc(b1-2)Gal(b1-3)GlcNAc
# How it was run: as §1
# [5] = target: GlcNAc(b1-2)Man(a1-3)[GlcNAc(b1-2)Man(a1-6)]Man(b1-4)GlcNAc(b1-4)GlcNAc
# How it was run: as §1
# GlcNAc(b1-3)Gal = target: GlcNAc(b1-3)Gal
# How it was run: as §1
# [6] = target: GlcNAc(b1-3)Gal(b1-3)GalNAc
# How it was run: as §1
# GlcNAc(b1-3)Gal(b1-4)Glc = target: GlcNAc(b1-3)Gal(b1-4)Glc
# How it was run: as §1
# [7] = target: GlcNAc(b1-3)Gal(b1-4)GlcNAc
# How it was run: as §1
# [8] = target: GlcNAc(b1-3)Gal(b1-4)GlcNAc(b1-3)Gal(b1-4)GlcNAc
# How it was run: as §1
# GlcNAc(b1-3)GalNAc = target: GlcNAc(b1-3)GalNAc
# How it was run: as §1
# [9] = target: GlcNAc(b1-3)[GlcNAc(b1-4)][GlcNAc(b1-6)]GlcNAc
# How it was run: as §1
# [10] = target: GlcNAc(b1-3)[GlcNAc(b1-6)]Gal(b1-4)GlcNAc
# How it was run: as §1
# [11] = target: GlcNAc(b1-3)[GlcNAc(b1-6)]GalNAc
# How it was run: as §1
# [12] = target: GlcNAc(b1-3)[GlcNAc(b1-6)]GlcNAc
# How it was run: as §1
# [13] = target: GlcNAc(b1-3)[GlcNAc(b1-6)]GlcNAc(b1-4)GlcNAc
# How it was run: as §1
# [14] = target: GlcNAc(b1-4)Gal(b1-4)GlcNAc
# How it was run: as §1
# [15] = target: GlcNAc(b1-4)GlcNAc(b1-4)GlcNAc
# How it was run: as §1
# [16] = target: GlcNAc(b1-4)GlcNAc(b1-4)GlcNAc(b1-4)GlcNAc(b1-4)GlcNAc
# How it was run: as §1
# [17] = target: GlcNAc(b1-4)GlcNAc(b1-4)GlcNAc(b1-4)GlcNAc(b1-4)GlcNAc(b1-4)GlcNAc
# How it was run: as §1
# [18] = target: GlcNAc(b1-4)[GlcNAc(b1-6)]GalNAc
# How it was run: as §1
# [19] = target: GlcNAc(b1-6)Gal(b1-4)GlcNAc
# How it was run: as §1
# GlcNAc(b1-6)GalNAc = target: GlcNAc(b1-6)GalNAc
# How it was run: as §1
# Kdn(a2-3)Gal(b1-3)GlcNAc = target: Kdn(a2-3)Gal(b1-3)GlcNAc
# How it was run: as §1
# Kdn(a2-3)Gal(b1-4)GlcNAc = target: Kdn(a2-3)Gal(b1-4)GlcNAc
# How it was run: as §1
# [20] = target: Man(a1-2)Man(a1-2)Man(a1-3)Man
# How it was run: as §1
# [21] = target: Man(a1-2)Man(a1-2)Man(a1-3)[Man(a1-2)Man(a1-3)[Man(a1-2)Man(a1-6)]Man(a1-6)]Man(b1-4)GlcNAc(b1-4)GlcNAc
# How it was run: as §1
# [22] = target: Man(a1-2)Man(a1-2)Man(a1-3)[Man(a1-2)Man(a1-6)[Man(a1-3)]Man(a1-6)]Man(b1-4)GlcNAc(b1-4)GlcNAc
# How it was run: as §1
# [23] = target: Man(a1-2)Man(a1-2)Man(a1-6)[Man(a1-3)]Man
# How it was run: as §1
# Man(a1-2)Man(a1-3)Man = target: Man(a1-2)Man(a1-3)Man
# How it was run: as §1
# [24] = target: Man(a1-2)Man(a1-3)[Man(a1-2)Man(a1-6)]Man
# How it was run: as §1
# [25] = target: Man(a1-2)Man(a1-3)[Man(a1-2)Man(a1-6)]Man(a1-6)[Man(a1-2)Man(a1-2)Man(a1-3)]Man(b1-4)GlcNAc(b1-4)GlcNAc
# How it was run: as §1
# [26] = target: Man(a1-2)Man(a1-3)[Man(a1-3)[Man(a1-6)]Man(a1-6)]Man(b1-4)GlcNAc(b1-4)GlcNAc
# How it was run: as §1
# [27] = target: Man(a1-2)Man(a1-3)[Man(a1-6)]Man(a1-6)[Man(a1-2)Man(a1-3)]Man(b1-4)GlcNAc(b1-4)GlcNAc
# How it was run: as §1
# [28] = target: Man(a1-2)Man(a1-6)[Man(a1-3)]Man(a1-6)[Man(a1-2)Man(a1-2)Man(a1-3)]Man(b1-4)GlcNAc(b1-4)GlcNAc
# How it was run: as §1
# Man(a1-3)[Man(a1-6)]Man = target: Man(a1-3)[Man(a1-6)]Man
# How it was run: as §1
# [29] = target: Man(a1-3)[Man(a1-6)]Man(a1-6)[Man(a1-2)Man(a1-3)]Man(b1-4)GlcNAc(b1-4)GlcNAc
# How it was run: as §1
# [30] = target: Man(a1-3)[Man(a1-6)]Man(a1-6)[Man(a1-3)]Man(b1-4)GlcNAc(b1-4)GlcNAc
# How it was run: as §1
# [31] = target: Man(a1-3)[Man(a1-6)]Man(b1-4)GlcNAc(b1-4)GlcNAc
# How it was run: as §1
# Man(b1-4)GlcNAc = target: Man(b1-4)GlcNAc
# How it was run: as §1
# Neu5Ac(a2-3)Gal = target: Neu5Ac(a2-3)Gal
# How it was run: as §1
# [32] = target: Neu5Ac(a2-3)Gal(b1-3)GalNAc
# How it was run: as §1
# [33] = target: Neu5Ac(a2-3)Gal(b1-3)GalNAc(b1-3)Gal(a1-4)Gal(b1-4)Glc
# How it was run: as §1
# [34] = target: Neu5Ac(a2-3)Gal(b1-3)GalNAc(b1-3)Gal(b1-4)GlcNAc
# How it was run: as §1
binder,measurement,setting,value
B1,glycan array binding signal (z-score),GlcA(b1-6)Gal,0.942
same,glycan array binding signal (z-score),[1],-0.594
same,glycan array binding signal (z-score),[2],-0.634
same,glycan array binding signal (z-score),[3],-0.593
same,glycan array binding signal (z-score),[4],-0.286
same,glycan array binding signal (z-score),[5],1.79
same,glycan array binding signal (z-score),GlcNAc(b1-3)Gal,-0.631
same,glycan array binding signal (z-score),[6],-0.414
same,glycan array binding signal (z-score),GlcNAc(b1-3)Gal(b1-4)Glc,-0.58
same,glycan array binding signal (z-score),[7],0.954
same,glycan array binding signal (z-score),[8],-0.29
same,glycan array binding signal (z-score),GlcNAc(b1-3)GalNAc,-0.743
same,glycan array binding signal (z-score),[9],-0.522
same,glycan array binding signal (z-score),[10],-0.74
same,glycan array binding signal (z-score),[11],-0.61
same,glycan array binding signal (z-score),[12],-0.408
same,glycan array binding signal (z-score),[13],-0.525
same,glycan array binding signal (z-score),[14],-0.673
same,glycan array binding signal (z-score),[15],-0.009
same,glycan array binding signal (z-score),[16],0.739
same,glycan array binding signal (z-score),[17],-0.158
same,glycan array binding signal (z-score),[18],-0.827
same,glycan array binding signal (z-score),[19],-0.309
same,glycan array binding signal (z-score),GlcNAc(b1-6)GalNAc,-0.903
same,glycan array binding signal (z-score),Kdn(a2-3)Gal(b1-3)GlcNAc,-0.712
same,glycan array binding signal (z-score),Kdn(a2-3)Gal(b1-4)GlcNAc,-0.365
same,glycan array binding signal (z-score),[20],0.541
same,glycan array binding signal (z-score),[21],-0.337
same,glycan array binding signal (z-score),[22],-0.57
same,glycan array binding signal (z-score),[23],-0.584
same,glycan array binding signal (z-score),Man(a1-2)Man(a1-3)Man,-0.103
same,glycan array binding signal (z-score),[24],-0.312
same,glycan array binding signal (z-score),[25],0.455
same,glycan array binding signal (z-score),[26],-0.302
same,glycan array binding signal (z-score),[27],-0.256
same,glycan array binding signal (z-score),[28],0.054
same,glycan array binding signal (z-score),Man(a1-3)[Man(a1-6)]Man,-0.452
same,glycan array binding signal (z-score),[29],-0.056
same,glycan array binding signal (z-score),[30],-0.044
same,glycan array binding signal (z-score),[31],0.408
same,glycan array binding signal (z-score),Man(b1-4)GlcNAc,-0.475
same,glycan array binding signal (z-score),Neu5Ac(a2-3)Gal,-0.154
same,glycan array binding signal (z-score),[32],-0.381
same,glycan array binding signal (z-score),[33],-0.03
same,glycan array binding signal (z-score),[34],-0.704

# Random excerpt: three records from the list.
binder,measurement,setting,value
B1,glycan array binding signal (z-score),[28],0.054
same,glycan array binding signal (z-score),[31],0.408
same,glycan array binding signal (z-score),GlcNAc(b1-6)GalNAc,-0.903
